Measurements: patent publication EP4813403A1, “USE OF GLP-1R/GIPR DOUBLE-TARGET AGONIST IN PREPARING ANIMAL DRUG” (Hangzhou Zhongmeihuadong Pharmaceutical Co., Ltd., priority 2023, dated 2025)
At least one peptide structure holds a part that was inferred or is arguable (an end, a ring closure or a residue).

What was measured:
Type in all cases: in vivo
[1] = test system: DIO mice; experiment: Weight loss effect in DIO mice obesity model; set-up: Cumulative food intake / Fasting blood glucose / Insulin / Serum TC / ALT: unit not given here; conditions: for Serum TC / Fasting blood glucose / Insulin / Body weight / Cumulative food intake / Liver Weight / ALT: Mean±SEM, 10 mice; for Insulin: D30 serum; for Body weight / Cumulative food intake / Liver Weight / Total abdominal fat: s.c. once every 3 days for 4 weeks; for Total abdominal fat: sum of perirenal and paratesticular fat; for ALT: serum
Method: In this study, 26-week-old male DIO mice were used. DIO mice were housed in appropriate cages. DIO mice were housed in an environment-monitored and well-ventilated SPF-grade animal room, with the temperature maintained between 20 and 26°C and relative humidity between 40% and 70%. […] The mice received food and water ad libitum. […] The mice were subcutaneously administrated once every 3 days for 4 consecutive weeks. […] Food intake was measured once daily after administration. RBG was measured before grouping and at 48 h after each administration. After fasted for 5 h on D30 (no water deprivation was required), FBG and glycated hemoglobin A1c (HbA1c) were detected, and blood was collected intravenously to separate the serum. A mouse insulin ELISA kit was used to detect the insulin content in the serum, and a biochemistry analyser was used to detect total cholesterol (TC), TG, low-density lipoprotein cholesterol (LDL), high-density lipoprotein cholesterol (HDL), free fatty acid (FFA), ALT, and aspartate aminotransferase (AST) content. The liver was collected, the perirenal and paratesticular fat tissues were separated and weighed, the organ-body ratio was calculated. The liver was stained with HE and Oil Red O for pathological scoring. The data results were statistically analyzed using one-way analysis of variance (ANOVA). A Levene's test was performed to test for variance homogeneity. If the result was homogeneous (P>0.05), a one-way analysis of variance (ANOVA) would be performed. […] In the case of heterogeneity of variance (P ≤0.05 ), a Dunnett's T3 test would be performed. Results were expressed as mean and standard deviation (Mean ± SEM). The test level was 0.05. Both statistical significance and biological significance were considered when analyzing the results.

[2] = test system: db/db mice; experiment: Multiple administration experiment on db/db mice; conditions: for AUC 4-25 day Glu / D28 FBG(Fasting Blood Glucose) / Liver Weight / Serum ALT / Serum TBIL / Serum TG: s.c. every 3 days for 4 weeks, Mean±SEM, 6 mice
Method: "Minimum effective dose" as disclosed in the present invention refers to the minimum administration dose at which the drug effect is produced.
"Efficacy dose" as disclosed in the present invention refers to the administration dose at which the drug effect is produced.
In this study, 7-8 week old male db/db mice were used. The db/db mice were placed in an individual ventilated cage (IVC) facility with a controlled temperature (20-26°C) and humidity (40-70%) and a controlled 12:12 h light-dark cycle. The mice received food and water ad libitum. Blood were sampled at the tail tip, and the base blood glucose was measured by a Roche blood glucose meter. The mice were randomly divided into groups according to the initial blood glucose and initial body weight (n=6/group), and each group had similar body weight and blood glucose.
The mice were subcutaneously administrated every 3 days for 4 weeks. Subcutaneous administration was conducted on days 1, 4, 7, 10, 13, 16, 19, 22 and 25. Random blood glucose was recorded every 3 days throughout the study. On day 28, the fasting blood glucose was measured. Then the blood was collected by orbital blood sampling. After the orbital blood sampling, the animals were sacrificed, and the liver was taken and weighed. After 1 to 2 hours, the collected blood was centrifuged at 3000 rpm for 10 min to separate the serum. Biochemical indicators such as triglyceride (TG), alanine aminotransferase (ALT), and total bilirubin (TBIL) were determined with a biochemical analyzer. The data results were statistically analyzed using GraphPad Prism8, and the statistical differences among the groups were analyzed following T-Test. Significant differences were identified at p<0.05.

[3] = test system: db/db mice; experiment: Pharmacodynamic effects in db/db mice, single subcutaneous administration (blood glucose); conditions: single s.c. 10 nmol/kg
Method: In this study, 8-9 week old male db/db mice were used. The db/db mice were placed in an individual ventilated cage (IVC) facility with a controlled temperature (20-26°C) and humidity (40-70%) and a controlled 12h:12 h light-dark cycle. The mice can receive food and water ad libitum. Blood was sampled at the tail tip, and the random base blood glucose was measured by a Roche blood glucose meter. The mice were randomly divided into groups according to the random initial fasting blood glucose and initial body weight (n=6/group), and each group had similar body weight and blood glucose.
After a single subcutaneous administration, the random base blood glucoses were recorded at the set time point (0 to 120 hours, the recording of the random base blood glucose was stopped until there was no difference between the random base blood glucose of the compound and that of the vehicle group), and the daily body weight and food intake were also recorded. The data results were statistically analyzed using GraphPad Prism8, and the statistical differences among the groups were analyzed following a T-Test. Significant differences were identified at p<0.05.
Hypoglycemic Duration: the longest time during which the random base blood glucose of the compound has a significant difference (p<0.05) vs. the vehicle group. Table 13. Hypoglycemic Duration of the Compounds

[4] = 1 nmol/kg s.c. once every 3 days
[5] = 30 nmol/kg s.c. once every 3 days

CC[C@H](C)[C@H](NC(=O)[C@H](CC(C)C)NC(=O)[C@H](Cc1c[nH]c2ccccc12)NC(=O)[C@H](CCC(N)=O)NC(=O)[C@@H](NC(=O)[C@H](Cc1ccccc1)NC(=O)[C@H](C)NC(=O)[C@H](CCCCNC(=O)COCCOCCNC(=O)COCCOCCNC(=O)CC[C@H](NC(=O)CCCCCCCCCCCCCCCCCCC(=O)O)C(=O)O)NC(=O)[C@H](CCC(N)=O)NC(=O)[C@H](C)NC(=O)[C@@H](NC(=O)[C@H](CCCCN)NC(=O)[C@H](CC(=O)O)NC(=O)[C@H](CC(C)C)NC(=O)C(C)(C)NC(=O)[C@@H](NC(=O)[C@H](CO)NC(=O)[C@H](Cc1ccc(O)cc1)NC(=O)[C@H](CC(=O)O)NC(=O)[C@H](CO)NC(=O)[C@@H](NC(=O)[C@H](Cc1ccccc1)NC(=O)[C@@H](NC(=O)CNC(=O)[C@H](CCC(=O)O)NC(=O)C(C)(C)NC(=O)[C@@H](N)Cc1ccc(O)cc1)[C@@H](C)O)[C@@H](C)O)[C@@H](C)CC)[C@@H](C)CC)C(C)C)C(=O)N[C@@H](C)C(=O)NCC(=O)NCC(=O)N1CCC[C@H]1C(=O)N[C@@H](CO)C(=O)N[C@@H](CO)C(=O)NCC(=O)N[C@@H](C)C(=O)N1CCC[C@H]1C(=O)N1CCC[C@H]1C(=O)N1CCC[C@H]1C(=O)N[C@@H](CO)C(N)=O [Tirzepatide, reference compound]
Serum TC [1, 4]: 3.54±0.15
percentage of weight loss ([1]; 30 nmol/kg s.c. once every 3 days for 4 weeks): 34.47%
Serum TC [1, 5]: 2.65±0.08
Fasting blood glucose ([1]; D30, 1 nmol/kg s.c. once every 3 days): 9.19±0.35
Fasting blood glucose ([1]; D30, 30 nmol/kg s.c. once every 3 days): 7.96±0.33
Insulin [1, 4]: 2.317±0.511
Insulin [1, 5]: 1.418±0.535
Body weight ([1]; 1 nmol/kg): 44.7 ± 0.87 g
Cumulative food intake ([1]; 1 nmol/kg): 76.51±1.67
Liver Weight ([1]; 1 nmol/kg): 1.305 ± 0.073 g
Total abdominal fat ([1]; 1 nmol/kg): 2.318 ± 0.123 g
Body weight ([1]; 30 nmol/kg): 31.8 ± 0.7 g
Cumulative food intake ([1]; 30 nmol/kg): 47.95±2.14
Liver Weight ([1]; 30 nmol/kg): 0.951 ± 0.031 g
Total abdominal fat ([1]; 30 nmol/kg): 0.781 ± 0.093 g
ALT [1, 4]: 56.20±4.66
ALT [1, 5]: 41.50±5.31
Efficacy Dose ([2]; db/db mice multiple administrations, dose with blood glucose AUC p<0.05 vs. Vehicle): 10 nmol/kg
AUC 4-25 day Glu ([2]; db/db mice, 3 nmol/kg): 419.85 ± 26.42 mmol·days/L
D28 FBG(Fasting Blood Glucose) ([2]; db/db mice, 3 nmol/kg): 17.35 ± 1.21 mmol/L
Liver Weight ([2]; db/db mice, 3 nmol/kg): 2.49 ± 0.05 g
Serum ALT ([2]; db/db mice, 3 nmol/kg): 146.03±19.67 U/L
Serum TBIL ([2]; db/db mice, 3 nmol/kg): 1.54 ± 0.17 µmol/L
Serum TG ([2]; db/db mice, 3 nmol/kg): 1.52 ± 0.11 mmol/L
AUC 4-25 day Glu ([2]; db/db mice, 10 nmol/kg): 355.68 ± 30.8 mmol·days/L
D28 FBG(Fasting Blood Glucose) ([2]; db/db mice, 10 nmol/kg): 13.82 ± 1.99 mmol/L
Liver Weight ([2]; db/db mice, 10 nmol/kg): 2.31 ± 0.17 g
Serum ALT ([2]; db/db mice, 10 nmol/kg): 138.66±31.26 U/L
Serum TBIL ([2]; db/db mice, 10 nmol/kg): 1.2 ± 0.3 µmol/L
Serum TG ([2]; db/db mice, 10 nmol/kg): 1.21 ± 0.04 mmol/L
AUC 4-25 day Glu ([2]; db/db mice, 30 nmol/kg): 252.7 ± 32.81 mmol·days/L
D28 FBG(Fasting Blood Glucose) ([2]; db/db mice, 30 nmol/kg): 10.88 ± 1.2 mmol/L
Liver Weight ([2]; db/db mice, 30 nmol/kg): 2.07 ± 0.15 g
Serum ALT ([2]; db/db mice, 30 nmol/kg): 112.48±14.55 U/L
Serum TBIL ([2]; db/db mice, 30 nmol/kg): 0.91 ± 0.04 µmol/L
Serum TG ([2]; db/db mice, 30 nmol/kg): 1.18 ± 0.12 mmol/L
minimum effective dose ([2]; db/db mice, s.c. injection for 4 weeks, blood glucose AUC p<0.05 vs. Vehicle): 10 nmol/kg
Hypoglycemic Duration ([3]; Group 1, longest time with p<0.05 vs. vehicle): 56 h
Hypoglycemic Duration ([3]; Group 2, longest time with p<0.05 vs. vehicle): 48 h
